Literature values, collected in patent US20220225651A1, “STEVIOL GLYCOSIDE AND FERULIC ACID FORMULATIONS FOR FOOD AND BEVERAGES” (Sweegen, Inc., priority 2021, published 2022).

Row | Structure (SMILES) | after-taste (taste quality) | concentration above which bitterness is perceptible (perceptible bitterness)
1 | C=C1C[C@@]23CC[C@H]4[C@@](C)(CCC[C@@]4(C)C(=O)O[C@@H]4O[C@H](CO)[C@@H](O)[C@H](O)[C@H]4O)[C@@H]2CC[C@]1(O[C@@H]1O[C@H](CO)[C@@H](O)[C@H](O)[C@H]1O[C@@H]1O[C@H](CO)[C@@H](O)[C@H](O)[C@H]1O)C3 [stevioside] | bitter after-taste | –
2 | C=C1C[C@@]23CC[C@H]4[C@@](C)(CCC[C@@]4(C)C(=O)O[C@@H]4O[C@H](CO)[C@@H](O)[C@H](O)[C@H]4O)[C@@H]2CC[C@]1(O[C@@H]1O[C@H](CO)[C@@H](O)[C@H](O[C@@H]2O[C@H](CO)[C@@H](O)[C@H](O)[C@H]2O)[C@H]1O[C@@H]1O[C@H](CO)[C@@H](O)[C@H](O)[C@H]1O)C3 [Reb A, rebaudioside A] | – | above 200 ppm
